This is an account of results in doi:10.1101/2023.09.28.560023.

Protein sequences, listed by entry. Tags and fused reporters are not part of them. Lines headed by an entry give the natural chain unless they say otherwise; changes in a name come on top. Chains listed by the source or under a name are the forms on record and can include a tag or linker.
Spy3-Ago2 (Ago2 with SpyTag3, from the Cre-recombined conditional cSpy3-Ago2 allele) (Q8CJG0, form named): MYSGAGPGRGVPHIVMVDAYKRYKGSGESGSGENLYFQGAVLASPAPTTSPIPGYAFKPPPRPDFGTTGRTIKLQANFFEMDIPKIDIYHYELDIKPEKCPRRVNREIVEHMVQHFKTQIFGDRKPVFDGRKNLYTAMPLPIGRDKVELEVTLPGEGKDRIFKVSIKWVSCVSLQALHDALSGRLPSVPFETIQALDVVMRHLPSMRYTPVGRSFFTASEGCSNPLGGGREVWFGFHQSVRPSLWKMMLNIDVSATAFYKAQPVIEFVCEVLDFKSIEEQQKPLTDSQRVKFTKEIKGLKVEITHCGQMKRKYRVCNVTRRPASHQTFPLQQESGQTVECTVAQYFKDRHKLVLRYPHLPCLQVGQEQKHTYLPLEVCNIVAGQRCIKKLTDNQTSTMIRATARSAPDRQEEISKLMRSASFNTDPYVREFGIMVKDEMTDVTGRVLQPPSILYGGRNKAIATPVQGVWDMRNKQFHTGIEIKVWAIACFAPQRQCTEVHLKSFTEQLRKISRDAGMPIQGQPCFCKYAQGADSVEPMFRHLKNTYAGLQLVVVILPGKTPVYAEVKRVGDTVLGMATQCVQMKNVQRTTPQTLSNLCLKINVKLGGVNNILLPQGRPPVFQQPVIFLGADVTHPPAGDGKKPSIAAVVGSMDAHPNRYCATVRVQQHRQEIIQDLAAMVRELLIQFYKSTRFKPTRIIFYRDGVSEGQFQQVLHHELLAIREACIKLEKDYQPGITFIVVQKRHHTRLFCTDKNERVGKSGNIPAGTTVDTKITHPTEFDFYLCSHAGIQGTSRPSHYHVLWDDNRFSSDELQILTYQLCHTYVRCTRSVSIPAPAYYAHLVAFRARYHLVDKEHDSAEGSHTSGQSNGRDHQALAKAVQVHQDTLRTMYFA

These are yes or no findings as the source states them, for the method shown. In cells and extracts the contact can be indirect. Some results given as binding are weak or reduced against the parent protein; the word gives no strength.

The target in the assay is HaloTag-linker-SpyCatcher3. The experiment in a line: pull-down.

Regarding “Spy3-Ago2 (Ago2 with SpyTag3, from the Cre-recombined conditional cSpy3-Ago2 allele) (from UniProt Q8CJG0 1-7; Q8CJG0 8-860)”, the binding entry is reported as “binds”.
